PubChem BioAssay AID686937 | Drosophila RNAi Screening Center – 2013
In all, the deposit lists about 23,000 reagents; shown is a random part of those that have a named target and a result. 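Reduced-secretion tags in replicate 1 do not always agree with the z-scores; no criterion for assigning the tags was given.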 Further read-outs or replicates are left out here. No sequences are given here. Not stated in the record: the amount of reagent.

Assay: 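Genes in the fly needed for secretion of protein constitutively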 (primary screen)
Cell system: Drosophila S2 cells expressing secreted horseradish peroxidase
Reagent: long dsRNA against Drosophila genes
Timing: about 5.5 days (5 days dsRNA, then 12 h reporter induction)
Treatment: reporter expression induced after 5 days of dsRNA, read 12 h later; inducer not stated
Measured: 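Chemiluminescent measurement of peroxidase in the medium 12 h after reporter induction, following 5 days of dsRNA, given as a z-score per plate; higher means more secretion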
Reading the numbers: z-score: higher = more reporter secreted into medium

Gene | PubChem SID | z-score, replicate 1
UbcE2H | SID104198013 | 0.32
Herc4 | SID104188423 | 0.47
drosha | SID104187399 | 0.42
CG15525 | SID104194854 | 0.22
snky | SID104189630 | 0.4
Dnali1 | SID104195950 | 0.26
CG15443 | SID104180247 | 0.64
CG5447 | SID104195593 | -0.5
Hip1 | SID104189604 | 0.16
CG8248 | SID104186916 | 0.3
Ccdc39 | SID104192078 | -0.13
Cyp318a1 | SID104199576 | 0.31
GstT4 | SID104199549 | -0.13
Burs | SID104194387 | 0.45
Rrp6 | SID104196015 | -3.5
CG7384 | SID104182845 | 0.27
CG14879 | SID104194795 | 0.34
CG8369 | SID104196205 | 0.11
Svil | SID104187773 | -0.2
Svil | SID104188088 | 0.01
Svil | SID104188124 | 0.21
Svil | SID104188125 | -2.02
Svil | SID104188286 | 0.22
CR16735 | SID104194936 | -0.46
Rtca | SID104198309 | 0.19
ari-1 | SID104200100 | 0.28
ari-1 | SID104201307 | -0.65
CG8564 | SID104190789 | 0.4
CG11600 | SID104194124 | 0.33
Hr51 | SID104186419 | 0.07
Hr51 | SID104202188 | -0.7
Rab39 | SID104197619 | -0.32
CG12923 | SID104186029 | 0.34

As entered above:
For “z-score, replicate 1”, CG12923 [SID104186029] has 0.34
Burs [SID104194387], z-score, replicate 1: 0.45
Value for CG5447 [SID104195593] under “z-score, replicate 1”: -0.5
Result of Svil [SID104188125] under “z-score, replicate 1”: -2.02
Value of Cyp318a1 [SID104199576] under “z-score, replicate 1”: 0.31
